# From publication PMC5043349
# By UniProt entry, the sequences of proteins in these tests, tags left out.
# UniProt Q15797: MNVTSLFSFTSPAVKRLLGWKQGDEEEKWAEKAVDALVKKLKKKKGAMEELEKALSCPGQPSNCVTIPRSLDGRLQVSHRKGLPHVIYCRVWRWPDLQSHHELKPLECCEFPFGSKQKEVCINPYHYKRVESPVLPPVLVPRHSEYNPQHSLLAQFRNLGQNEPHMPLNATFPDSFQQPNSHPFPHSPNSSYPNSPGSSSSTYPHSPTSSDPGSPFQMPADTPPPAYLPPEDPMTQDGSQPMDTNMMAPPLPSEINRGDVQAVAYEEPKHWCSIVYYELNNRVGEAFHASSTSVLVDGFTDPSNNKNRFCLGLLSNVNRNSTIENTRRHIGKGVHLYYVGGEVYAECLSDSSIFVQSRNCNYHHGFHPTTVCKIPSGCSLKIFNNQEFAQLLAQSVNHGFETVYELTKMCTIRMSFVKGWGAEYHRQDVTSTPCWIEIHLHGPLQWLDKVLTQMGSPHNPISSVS
# UniProt Q13485: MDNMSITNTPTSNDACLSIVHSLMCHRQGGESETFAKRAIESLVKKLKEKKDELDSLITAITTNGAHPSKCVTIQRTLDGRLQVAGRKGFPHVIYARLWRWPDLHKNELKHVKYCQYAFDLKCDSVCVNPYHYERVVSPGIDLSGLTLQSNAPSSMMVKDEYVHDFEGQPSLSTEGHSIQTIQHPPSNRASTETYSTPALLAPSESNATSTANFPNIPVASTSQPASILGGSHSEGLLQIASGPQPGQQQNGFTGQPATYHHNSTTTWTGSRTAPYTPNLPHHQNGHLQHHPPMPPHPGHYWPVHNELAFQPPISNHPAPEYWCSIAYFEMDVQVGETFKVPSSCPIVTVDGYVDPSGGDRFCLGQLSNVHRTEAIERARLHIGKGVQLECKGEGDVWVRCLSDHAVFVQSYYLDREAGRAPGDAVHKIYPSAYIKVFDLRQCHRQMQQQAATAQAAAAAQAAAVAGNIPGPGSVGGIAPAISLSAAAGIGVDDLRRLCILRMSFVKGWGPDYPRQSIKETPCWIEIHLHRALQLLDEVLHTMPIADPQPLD
# Like-named read-outs stand apart in the source and are kept apart here. No constants are given. Whether binding was seen depends on the method and setting. Binding seen in cells or lysates may run through a third protein. Some binding calls cover weakened binding; strength is not graded here.
# B1: SHP, endogenous in HepG2 cells (protein, UniProt Q15466 1-257)
# chain: MSTSQPGACPCQGAASRPAILYALLSSSLKAVPRPRSRCLCRQHRPVQLCAPHRTCREALDVLAKTVAFLRNLPSFWQLPPQDQRRLLQGCWGPLFLLGLAQDAVTFEVAEAPVPSILKKILLEEPSSSGGSGQLPDRPQPSLAAVQWLQCCLESFWSLELSPKEYACLKGTILFNPDVPGLQAASHIGHLQQEAHWVLCEVLEPWCPAAQGRLTRVLLTASTLKSIPTSLLGDLFFRPIIGDVDIAGLLGDMLLLR
# How the values were obtained:
# [1] = molecular target: SMAD1, endogenous in HepG2 cells (human (endogenous in HepG2)) (UniProt Q15797); assay: co-IP; endogenous proteins in HepG2 cells treated with BMP6 (20 nM) or metformin (2 mM) for 24 h; Western blot; which protein was precipitated is not told
# [2] = molecular target: SMAD1, endogenous in HepG2 cells (human (endogenous in HepG2)) (UniProt Q15797); assay: as above; remark: listed apart in the source
Molecule,binding [1],binding [2]
"SMAD4, endogenous in HepG2 cells (from UniProt Q13485 1-552)",binds,
B1,,binds
